Some entries share one result that the patent states for a list of compounds. At least one read-out could not be matched to a standard name with certainty. At least one compound was matched to its structure with a doubt left.
Columns and labels:
[1] = system: substantia nigra-derived dopaminergic progenitor cell line exposed to MPP+; experiment: MPP+ cell death assay; assay type: cell-based; details: concentrations ranging from 1 to 25 μM; 70 μM MPP+, 24 hours
[2] = system: primary hippocampal neuronal cells; experiment: Hippocampal anoxia-reoxygenation cell death assay; assay type: cell-based, mouse; details: concentrations ranging from 1 to 100 μM, preferably 25 μM

Row | SMILES | protection, % of the cells tested [1] | protection against stressor-induced cell death, % of the cells tested [2]
1 | CC1(CCCO)CCc2cc(O)c3c(c2O1)C1CCCC3CC1 (centres unmarked) [2-(3-Hydroxy-propyl)-2-methyl-3,4,7,8,9,10-hexahydro-7,10-propano-2H-benzo[h]chromen-4-ol] | at least 30% | at least 30%
2 | CC(=O)Oc1c(CC=C(C)C)c2c(c3c1C1CCC3C1)OC(C)(C)CC2 (centres unmarked) [Acetic acid 2,2-dimethyl-5-(3-methyl-but-2-enyl)-3,4,7,8,9,10-hexahydro-7,10-methano-2H-benzo[h]chromen-6-yl ester] | at least 30% | 
3 | CN(C)S(=O)(=O)CCCCC1(C)CCc2cc(O)c3c(c2O1)C1CCC3C1 (centres unmarked) [4-(6-Hydroxy-2-methyl-3,4,7,8,9,10-hexahydro-7,10-methano-2H-benzo[h]chromen-2-yl)-butane-1-sulfonic Acid Dimethylamide] |  | at least 30%
4 | COC(=O)CCC1(C)CCc2cc(O)c3c(c2O1)C1CCCC3CC1 (centres unmarked) [3-(6-Hydroxy-2-methyl-3,4,7,8,9,10-hexahydro-7,10-propano-2H-benzo[h]chromen-2-yl)-propionic Acid Methyl Ester] |  | at least 30%
5 | CC(C)=CCc1c(O)c2c(c3c1C=CC(C)(C)O3)C1CCC2C1 (centres unmarked) [2,2-Dimethyl-5-(3-methyl-but-2-enyl)-7,8,9,10-tetrahydro-7,10-methano-2H-benzo[h]chromen-6-ol] | at least 30% | 
6 | CC1(CCC(=O)N2CCOCC2)CCc2cc(O)c3c(c2O1)C1CCC3C1 (centres unmarked) [3-(6-Hydroxy-2-methyl-3,4,7,8,9,10-hexahydro-7,10-methano-2H-benzo[h]chromen-2-yl)-1-morpholin-4-yl-propan-1-one] | at least 30% | 
7 | CC(C)CCc1c(O)c2c(c3c1CCC(C)(C)O3)C1CCC2C1 (centres unmarked) [2,2-Dimethyl-5-(3-methyl-butyl)-3,4,7,8,9,10-hexahydro-7,10-methano-2H-benzo[h]chromen-6-ol] | at least 30% | 
8 | CC(C)=CCc1c(O)c2c(c3c1CCC(C)(C)O3)C1C=CC2CC1 (centres unmarked) [2,2-Dimethyl-5-(3-methyl-but-2-enyl)-3,4,7,10-tetrahydro-7,10-ethano-2H-benzo[h]chromen-6-ol] | at least 30% | 
9 | COC(=O)CCC1(C)CCc2cc(O)c3c(c2O1)C1CCC3C1 (centres unmarked) [3-(6-Hydroxy-2-methyl-3,4,7,8,9,10-hexahydro-7,10-methano-2H-benzo[h]chromen-2-yl)-propionic Acid Methyl Ester] | at least 30% | at least 30%
10 | COP(=O)(CCCC1(C)CCc2cc(O)c3c(c2O1)C1CCC3C1)OC (centres unmarked) [[3-(6-Hydroxy-2-methyl-3,4,7,8,9,10-hexahydro-7,10-methano-2H-benzo[h]chromen-2-yl)-propyl]-phosphonic Acid Dimethyl Ester] | at least 30% | at least 30%
11 | CC1(CCCSc2nc3ccccc3s2)CCc2cc(O)c3c(c2O1)C1CCC3C1 (centres unmarked) [2-[3-(Benzothiazol-2-ylsulfanyl)-propyl]-2-methyl-3,4,7,8,9,10-hexahydro-7,10-methano-2H-benzo[h]chromen-6-ol] | at least 30% | 
12 | CC(C)=CCc1c(O)c2c(c3c1CCC(C)(CCC(=O)O)O3)C1CCC2C1 (centres unmarked) [3-[6-hydroxy-2-methyl-5-(3-methyl-but-2-enyl)-3,4,7,8,9,10-hexahydro-7,10-methano-2H-benzo[h]chromen-2-yl]-propionic acid] | at least 30% | at least 30%
13 | CC1(C)CCc2c(Br)c(O)c3c(c2O1)C1CCC3C1 (centres unmarked) [5-Bromo-2,2-dimethyl-3,4,7,8,9,10-hexahydro-7,10-methano-2H-benzo[h]chromen-6-ol] | at least 30% | 
14 | CC1(C)CC2CC(C)(C1)Oc1c2cc(O)c2c1C1CCC2C1 (centres unmarked) [2,6:9,12-Dimethano-9,10,11,12-tetrahydro-2,4,4-trimethylnaphtho[1,2-b]oxocan-8-ol] | at least 30% | 
15 | COC(=O)CCC1(C)C=Cc2c3c(c4c(c2O1)C1CCC4C1)OC(C)(CCC(=O)OC)C=C3 (centres unmarked) [3-[7-(2-Methoxycarbonyl-ethyl)-2,7-dimethyl-2,7,9,10,11,12-hexahydro-1,8-dioxa-0-12-methano-triphenylen-2-yl]-propionic acid methyl ester] |  | at least 30%
16 | CC(C)=CCc1c(O)c2c(c3c1CCC(C)(C)O3)C1CCC2C1 (centres unmarked) [2,2-Dimethyl-5-(3-methyl-but-2-enyl)-3,4,7,8,9,10-hexahydro-7,10-methano-2H-benzo[h]chromen-6-ol] | at least 30% | 
17 | CC1(CCC(=O)O)CCc2cc(O)c3c(c2O1)C1CCC3C1 (centres unmarked) [3-(6-Hydroxy-2-methyl-3,4,7,8,9,10-hexahydro-7,10-methano-2H-benzo[h]chromen-2-yl)-propionic Acid] | at least 30% | at least 30%
18 | CC1(CCCP(=O)(O)O)CCc2cc(O)c3c(c2O1)C1CCC3C1 (centres unmarked) [[3-(6-Hydroxy-2-methyl-3,4,7,8,9,10-hexahydro-7,10-methano-2H-benzo[h]chromen-2-yl)-propyl]-phosphonic Acid] |  | at least 30%
19 | CC1(CCCCl)CCc2cc(O)c3c(c2O1)C1CCC3C1 (centres unmarked) [2-(3-Chloro-propyl)-2-methyl-3,4,7,8,9,10-hexahydro-7,10-methano-2H-benzo[h]chromen-6-ol] | at least 30% | at least 30%
20 | CC1(C)CCc2cc(O)c3c(c2O1)C1CCC3C1 (centres unmarked) [2,2-Dimethyl-3,4,7,8,9,10-hexahydro-7,10-methano-2H-benzo[h]chromen-6-ol] | at least 30% | at least 30%
21 | Cc1cc(C)nc(SCc2c(O)c(C)c(C)c3c2CCC(C)(C)O3)n1 [5-(4,6-Dimethyl-pyrimidin-2-ylsulfanylmethyl)-2,2,7,8-tetramethyl-chroman-6-ol] | at least 30% | 
22 | CC1(CCC(=O)O)CCc2cc(O)c3c(c2O1)C1CCCC3CC1 (centres unmarked) [3-(6-Hydroxy-2-methyl-3,4,7,8,9,10-hexahydro-7,10-propano-2H-benzo[h]chromen-2-yl)-propionic Acid] | at least 30% | 
23 | CC(=O)Oc1c(CCC(C)C)c2c(c3c1C1CCC3C1)OC(C)(C)CC2 (centres unmarked) [Acetic acid 2,2-dimethyl-5-(3-methyl-butyl)-3,4,7,8,9,10-hexahydro-7,10-methano-2H-benzo[h]chromen-6-yl ester] | at least 30% | 
24 | CC1(CCCSc2nccs2)CCc2cc(O)c3c(c2O1)C1CCC3C1 (centres unmarked) [2-Methyl-2-[3-(thiazol-2-ylsulfanyl)-propyl]-3,4,7,8,9,10-hexahydro-7,10-methano-2H-benzo[h]chromen-6-ol] | at least 30% | 
25 | CC1(CCCl)CCc2cc(O)c3c(c2O1)C1CCC3C1 (centres unmarked) [2-(2-Chloro-ethyl)-2-methyl-3,4,7,8,9,10-hexahydro-7,10-methano-2H-benzo[h]chromen-6-ol] | at least 30% | 

From patent US7875607B2, “7,8-bicycloakyl-chroman derivatives” (Ampere Life Sciences, Inc., priority 2004, dated 2011)
